Data as given in PubChem BioAssay AID1259280 (Sanger Institute, 2017)

- Purpose: 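Kinase knock-downs that kill colorectal cancer cells or add to anchor drugs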 (primary screen)
- Cells: human SNU407 colorectal cancer cells
- Reagents: siRNA pool against human genes
- Treatment: anchor drugs BYL719 at 1 µM, cetuximab at 5 µg/ml or trametinib at 10 nM, or DMSO vehicle alone; exposure time not given
- Read-out: 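Viability per well scaled to a non-targeting pool and averaged over replicates, with a robust z-score from controls and a synergy score per anchor drug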
- Scale: viability z-score, no drug and viability vs control, no drug: higher = more cells survive the knock-down; synergy with trametinib and synergy with BYL719 and synergy with cetuximab: higher = stronger synergy of knock-down with drug
- Call rule: 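a knock-down counts as essential when its robust viability z-score without drug is below -3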
- Calls: active = essential (knock-down alone kills cells); inactive = no change without drug
In all, the deposit lists 794 reagents; below is an unselected part. Of all reagents, 12 (1.5%) are marked active. 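Calls cover knock-down without drug only; synergy scores stand apart, values above 0.15 being treated as synergy.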 No viability above 1 is reported: the scale is capped. Reagent sequences are not shown. Not stated in the record: the amount of reagent, the time to read-out.

The opening 4 entries, to show the layout:
| Target gene | viability z-score, no drug | viability vs control, no drug (fraction of control) | synergy with trametinib | synergy with BYL719 | synergy with cetuximab | Call |
| --- | --- | --- | --- | --- | --- | --- |
| IKBKE | 0.901 | 1 | -0.0595 | 0.0105 | 0.019 | inactive |
| CDC73 | -0.204 | 0.916 | -0.0363 | 0.017 | -0.0461 | inactive |
| MAP3K2 | 0.457 | 0.966 | -0.0294 | -0.00393 | 0.0319 | inactive |
| NRBP2 | -0.407 | 0.9 | 0.0941 | 0.056 | -0.0341 | inactive |

The list itself, from the start:
| Target gene | viability z-score, no drug | viability vs control, no drug (fraction of control) | synergy with trametinib | synergy with BYL719 | synergy with cetuximab | Call |
| --- | --- | --- | --- | --- | --- | --- |
| IKBKE | 0.901 | 1 | -0.0595 | 0.0105 | 0.019 | inactive |
| CDC73 | -0.204 | 0.916 | -0.0363 | 0.017 | -0.0461 | inactive |
| MAP3K2 | 0.457 | 0.966 | -0.0294 | -0.00393 | 0.0319 | inactive |
| NRBP2 | -0.407 | 0.9 | 0.0941 | 0.056 | -0.0341 | inactive |
| LTK | 0.784 | 0.991 | 0.00453 | -0.036 | -0.0183 | inactive |
| ITPKB | 0.901 | 1 | 0.0484 | 0.0863 | 0.105 | inactive |
| UCK1 | -0.434 | 0.898 | 0.0555 | 0.0395 | -0.00212 | inactive |
| GRK7 | -1.64 | 0.806 | 0.0052 | 0.0585 | -0.0488 | inactive |
| SMAD2 | 0.758 | 0.989 | -0.131 | 0.027 | -0.0985 | inactive |
| RPS6KA1 | 0.901 | 1 | 0.0974 | 0.16 | 0.0296 | inactive |
| CAMKK1 | 0.901 | 1 | -0.112 | 0.063 | -0.0274 | inactive |
| IP6K3 | 0.901 | 1 | -0.029 | 0.0937 | 0.0825 | inactive |
| LRRK2 | -0.652 | 0.881 | -0.00415 | -0.0482 | 0.00747 | inactive |
| SGK3 | 0.901 | 1 | -0.0823 | 0.00752 | -0.024 | inactive |
| PANK1 | 0.865 | 0.997 | -0.068 | -0.0116 | 0.0986 | inactive |
| PLK2 | 0.901 | 1 | 0.0072 | 0.00611 | -0.0886 | inactive |
| PRPS1L1 | 0.901 | 1 | 0.0611 | 0.0723 | 0.0158 | inactive |
| CRKL | 0.73 | 0.987 | -0.0754 | -0.00791 | -0.0432 | inactive |
| MAP3K20 | 0.901 | 1 | -0.0723 | -0.0431 | -0.03 | inactive |
| CHKA | -1.83 | 0.791 | -0.0478 | -0.0179 | 0.00862 | inactive |
| MAP3K12 | -0.139 | 0.921 | 0.0759 | -0.0795 | -0.0465 | inactive |
| RPS6KA5 | 0.807 | 0.993 | 0.13 | 0.168 | 0.138 | inactive |
| DLG3 | 0.901 | 1 | -0.00682 | 0.00731 | -0.0063 | inactive |
| PRKDC | -0.623 | 0.884 | -0.0271 | -0.0294 | 0.0407 | inactive |
| DDR2 | 0.212 | 0.947 | -0.132 | -0.0301 | -0.107 | inactive |
| THNSL1 | 0.901 | 1 | -0.133 | 0.0167 | 0.0714 | inactive |
| ALPK3 | -1.36 | 0.827 | 0.0216 | -0.0722 | 0.0575 | inactive |
| PIK3CB | 0.901 | 1 | -0.0101 | 0.043 | 0.0558 | inactive |
| SMG1 | -0.197 | 0.916 | 0.0174 | 0.0701 | 0.124 | inactive |
| PIKFYVE | 0.901 | 1 | 0.00525 | -0.0171 | -0.0212 | inactive |
| PTK2B | -0.628 | 0.883 | 0.106 | 0.215 | 0.127 | inactive |
| PANK2 | 0.901 | 1 | 0.0134 | 0.0392 | 0.00111 | inactive |
| CSNK1G1 | 0.901 | 1 | -0.0372 | 0.131 | 0.00527 | inactive |
| SLK | 0.901 | 1 | 0.0803 | 0.0173 | 0.00298 | inactive |
